Experimental data as given in publication PMC10087552, “Non‐canonical binding of the Chaetomium thermophilum PolD4 N‐terminal PIP motif to PCNA involves Q‐pocket and compact 2‐fork plug interactions but no 3_10 helix” (The Febs Journal, 2022).
No constants are given. Whether binding was seen depends on the method and setting. A result given as binding can be weak or reduced; the word gives no strength.

Target: Chaetomium thermophilum PCNA (proliferating cell nuclear antigen) (Chaetomium thermophilum)
Test: crystal structure; co-crystallisation of Ct PCNA with the peptide; 0.2 M calcium acetate, 0.1 M sodium cacodylate pH 6.5, 36% PEG 300; 2.45 Å, space group P1, two trimers in the asymmetric unit; both purified

binding: binds
Binder: KHQSTLNFKHRVTKP [Ct PolD4 PIP peptide (residues 21-35 of Chaetomium thermophilum PolD4)]
